PubChem BioAssay AID686938, Drosophila RNAi Screening Center, 2013
Aim: 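Looking for CRAC channel components and the factors controlling them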 (primary screen). Cell system: Drosophila S2R+ cells. Reagent: long dsRNA against Drosophila genes, about 0.25 µg dsRNA per well, roughly 10,000 cells. Timing: 5 days of knock-down before the calcium assay. Challenge: thapsigargin (SERCA pump blocker) to empty calcium stores; entry signal taken 4 min after adding it. Read-out: 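Per-well fluo-4 fluorescence in two replicates, unnormalised, measured in resting cells and 4 min after store depletion by the SERCA blocker thapsigargin; ratio of the two present in few wells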. Direction: calcium entry signal: higher = stronger calcium signal after store depletion; resting calcium signal: higher = higher resting calcium signal. Active means: 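Called when the plate z-score of the entry-to-rest ratio, mean of duplicates, falls below −3; wells with low overall dye signal (Fmax z below −2) or more than five off-targets excluded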. Meaning of the calls: active = strongly reduced calcium entry; inactive = no strong reduction.
The screen tested about 23,000 reagents; below is a random part of those with a known target gene and a result. Over the whole deposit, 75 (0.33%) got an active call. 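Raw plate signals without normalisation; calls rest on plate z-scores that were not deposited; ratio present for only 364 wells.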 A number with no mark means an inactive call. Reagents against one gene are numbered here. Not stated in the record: the dose of the treatment.

With NtR, what does the deposit list?
calcium entry signal, replicate 1 (fluorescence units): 4.02e7; calcium entry signal, replicate 2 (fluorescence units): 6.22e7; resting calcium signal, replicate 1 (fluorescence units): 1.94e7; resting calcium signal, replicate 2 (fluorescence units): 2.63e7

For CG7900 #1, how do the results read?
calcium entry signal, replicate 1 (fluorescence units): 4.33e7; calcium entry signal, replicate 2 (fluorescence units): 5.74e7; resting calcium signal, replicate 1 (fluorescence units): 2.09e7; resting calcium signal, replicate 2 (fluorescence units): 2.64e7

With CG7900 #2, what was measured?
calcium entry signal, replicate 1 (fluorescence units): 2.46e7; calcium entry signal, replicate 2 (fluorescence units): 3.44e7; resting calcium signal, replicate 1 (fluorescence units): 1.24e7; resting calcium signal, replicate 2 (fluorescence units): 1.67e7

What is on record for Or85b (Odorant receptor 85b)?
calcium entry signal, replicate 1 (fluorescence units): 3.02e7; calcium entry signal, replicate 2 (fluorescence units): 2.94e7; resting calcium signal, replicate 1 (fluorescence units): 1.30e7; resting calcium signal, replicate 2 (fluorescence units): 1.31e7

With CG13727, what does the deposit list?
calcium entry signal, replicate 1 (fluorescence units): 4.69e7; calcium entry signal, replicate 2 (fluorescence units): 5.47e7; resting calcium signal, replicate 1 (fluorescence units): 2.14e7; resting calcium signal, replicate 2 (fluorescence units): 2.37e7

With car (carnation), how do the results read?
calcium entry signal, replicate 1 (fluorescence units): 3.42e7; calcium entry signal, replicate 2 (fluorescence units): 3.34e7; resting calcium signal, replicate 1 (fluorescence units): 1.73e7; resting calcium signal, replicate 2 (fluorescence units): 1.40e7

What did the screen give for Sf3b6 (Splicing factor 3b subunit 6)?
calcium entry signal, replicate 1 (fluorescence units): 2.95e7; calcium entry signal, replicate 2 (fluorescence units): 2.15e7; resting calcium signal, replicate 1 (fluorescence units): 1.74e7; resting calcium signal, replicate 2 (fluorescence units): 1.22e7

What is on record for CG14644?
calcium entry signal, replicate 1 (fluorescence units): 3.40e7; calcium entry signal, replicate 2 (fluorescence units): 5.04e7; resting calcium signal, replicate 1 (fluorescence units): 1.58e7; resting calcium signal, replicate 2 (fluorescence units): 2.22e7

For CG7252 #1, what was measured?
calcium entry signal, replicate 1 (fluorescence units): 5.80e7; calcium entry signal, replicate 2 (fluorescence units): 4.77e7; resting calcium signal, replicate 1 (fluorescence units): 3.66e7; resting calcium signal, replicate 2 (fluorescence units): 1.84e7

For CG7252 #2, how do the results read?
calcium entry signal, replicate 1 (fluorescence units): 3.78e7; calcium entry signal, replicate 2 (fluorescence units): 3.53e7; resting calcium signal, replicate 1 (fluorescence units): 2.11e7; resting calcium signal, replicate 2 (fluorescence units): 1.49e7

What did the screen give for CG12849?
calcium entry signal, replicate 1 (fluorescence units): 3.68e7; calcium entry signal, replicate 2 (fluorescence units): 5.02e7; resting calcium signal, replicate 1 (fluorescence units): 1.96e7; resting calcium signal, replicate 2 (fluorescence units): 2.14e7

Part of the list above in another layout.
{"gene":"car (carnation)","reagent no.":1,"calcium entry signal, replicate 1 (fluorescence units)":3.42e7,"calcium entry signal, replicate 2 (fluorescence units)":3.34e7,"resting calcium signal, replicate 1 (fluorescence units)":1.73e7,"resting calcium signal, replicate 2 (fluorescence units)":1.40e7}
{"gene":"Sf3b6 (Splicing factor 3b subunit 6)","reagent no.":1,"calcium entry signal, replicate 1 (fluorescence units)":2.95e7,"calcium entry signal, replicate 2 (fluorescence units)":2.15e7,"resting calcium signal, replicate 1 (fluorescence units)":1.74e7,"resting calcium signal, replicate 2 (fluorescence units)":1.22e7}
{"gene":"CG14644","reagent no.":1,"calcium entry signal, replicate 1 (fluorescence units)":3.40e7,"calcium entry signal, replicate 2 (fluorescence units)":5.04e7,"resting calcium signal, replicate 1 (fluorescence units)":1.58e7,"resting calcium signal, replicate 2 (fluorescence units)":2.22e7}

The list goes on:
What is on record for Rlb1?
calcium entry signal, replicate 1 (fluorescence units): 3.32e7; calcium entry signal, replicate 2 (fluorescence units): 2.81e7; resting calcium signal, replicate 1 (fluorescence units): 1.77e7; resting calcium signal, replicate 2 (fluorescence units): 1.63e7

What did the screen give for ppan (peter pan)?
calcium entry signal, replicate 1 (fluorescence units): 2.21e7; calcium entry signal, replicate 2 (fluorescence units): 2.73e7; resting calcium signal, replicate 1 (fluorescence units): 1.45e7; resting calcium signal, replicate 2 (fluorescence units): 6.34e7

For Tengl2 (Testis EndoG-Like 2), how do the results read?
calcium entry signal, replicate 1 (fluorescence units): 3.61e7; calcium entry signal, replicate 2 (fluorescence units): 4.35e7; resting calcium signal, replicate 1 (fluorescence units): 1.68e7; resting calcium signal, replicate 2 (fluorescence units): 2.14e7

How did the screen score CG31559 #1?
calcium entry signal, replicate 1 (fluorescence units): 5.39e7; calcium entry signal, replicate 2 (fluorescence units): 3.70e7; resting calcium signal, replicate 1 (fluorescence units): 2.48e7; resting calcium signal, replicate 2 (fluorescence units): 1.58e7

With CG31559 #2, what was measured?
calcium entry signal, replicate 1 (fluorescence units): 4.91e7; calcium entry signal, replicate 2 (fluorescence units): 3.80e7; resting calcium signal, replicate 1 (fluorescence units): 2.32e7; resting calcium signal, replicate 2 (fluorescence units): 1.78e7

For Gr28b (Gustatory receptor 28b) #1, what was measured?
calcium entry signal, replicate 1 (fluorescence units): 3.77e7; calcium entry signal, replicate 2 (fluorescence units): 3.78e7; resting calcium signal, replicate 1 (fluorescence units): 1.84e7; resting calcium signal, replicate 2 (fluorescence units): 1.77e7

For Gr28b (Gustatory receptor 28b) #2, how do the results read?
calcium entry signal, replicate 1 (fluorescence units): 3.85e7; calcium entry signal, replicate 2 (fluorescence units): 3.83e7; resting calcium signal, replicate 1 (fluorescence units): 1.92e7; resting calcium signal, replicate 2 (fluorescence units): 1.71e7

For CG32755, how do the results read?
calcium entry signal, replicate 1 (fluorescence units): 2.81e7; calcium entry signal, replicate 2 (fluorescence units): 5.10e7; resting calcium signal, replicate 1 (fluorescence units): 1.50e7; resting calcium signal, replicate 2 (fluorescence units): 2.39e7

What did the screen give for CG3065?
calcium entry signal, replicate 1 (fluorescence units): 3.49e7; resting calcium signal, replicate 1 (fluorescence units): 1.84e7

How did the screen score CG14606?
calcium entry signal, replicate 1 (fluorescence units): 4.71e7; calcium entry signal, replicate 2 (fluorescence units): 3.63e7; resting calcium signal, replicate 1 (fluorescence units): 2.32e7; resting calcium signal, replicate 2 (fluorescence units): 1.67e7
